Here are results for one substance from PMC5676692.

The assay addresses AAV9-138 capsid protein VP1 with the tetracysteine motif, biotinylated (adeno-associated virus serotype 9 (AAV9)) (UniProt Q6JC40). As to the kind of experiment: pull-down; biotinylated AAV9-138 particles (assembled in HEK293T cells) pulled down with streptavidin-agarose under stringent washes; eluate on Instant Blue stained gel and immunoblot with anti-AAV VP1, VP2, VP3 antibody. Background: A western blot detects proteins with antibodies after separation by electrophoresis.

These are yes or no findings as the source states them, for the method shown. Binding seen in cells or lysates may run through a third protein. Some binding calls cover weakened binding; strength is not graded here.

For the substance “AAV9 capsid protein VP3 (from UniProt Q6JC40 203-736)”, the binding entry is recorded as “binds”.
